According to PubChem BioAssay AID587 (National Center for Advancing Translational Sciences (NCATS), 2007):
About 35 (0.06%) of roughly 59,000 compounds were called active. The inconclusive results got no clear call from the source; some entries with a clear call stand among them for comparison. Cut-off read from the data, not from the text of the source: active = max dye-equivalent concentration above about 10 nM; inconclusive = between about 1.1 nM and that limit; inactive = weaker than that.

Test: qHTS Assay for Spectroscopic Profiling in Texas Red Spectral Region
Conditions: Compound fluorescence, Texas Red channel, 547/618 nm; hits give high values
How it was run: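 qHTS profiling of intrinsic compound fluorescence; 100 mM Tris pH 8.0; 15 min RT; ex 547 / em 618 nm; response expressed as Texas Red dye-equivalent concentration from six-point plate standard.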

Question: Which max dye-equivalent concentration does the source give for O=C(NCCCN1CCOCC1)c1cc(-c2ccccc2)on1 here?
Answer: inconclusive: 1.8 nM

Question: For Cc1ccc(C(O)CN2C3=NCCN3c3ccccc32)cc1 (configuration not stated), which max dye-equivalent concentration is on record?
Answer: inconclusive: 2 nM

Question: For CCN1C(=O)c2cccc3c(NS(=O)(=O)c4ccc(NC(C)=O)cc4)ccc1c23, which max dye-equivalent concentration is on record?
Answer: inconclusive: 1.6 nM

Question: Which max dye-equivalent concentration does the source give for COc1ccc(-n2c(=O)cnc3cnc(N(C)C)nc32)cc1 here?
Answer: inactive

Question: Which max dye-equivalent concentration does the source give for O=C(c1ccc2c(c1)OCO2)N(c1ccc(F)cc1)C1C=CS(=O)(=O)C1 (configuration not stated) here?
Answer: inconclusive: 1.8 nM

Question: With O=C1c2ccccc2S(=O)(=O)N1CCOc1ccccc1 as the compound, how does the max dye-equivalent concentration read?
Answer: inconclusive: 1.7 nM

Question: For CCNc1nc(NCC)nc(N(C)n2cnnc2)n1, which max dye-equivalent concentration is on record?
Answer: inactive

Question: Which max dye-equivalent concentration does the source give for O=C(c1cccc(Cl)c1)N1CCN(C2CCCCCC2)CC1 here?
Answer: inconclusive: 1.2 nM

Question: With N=C(N)SCc1cccc(-c2nc3ccccc3c(=O)o2)c1 as the compound, how does the max dye-equivalent concentration read?
Answer: inactive

Question: With CCOC(=O)Nc1ccc(Oc2ccccc2)cc1 as the compound, how does the max dye-equivalent concentration read?
Answer: inconclusive: 1.1 nM

Question: For Cc1cc(C)n(C(=O)c2ccc(NC(=O)CC(C)C)cc2)n1, which max dye-equivalent concentration is on record?
Answer: inconclusive: 1.2 nM

Question: With CCOC(=O)Cc1csc(NC(=O)C2CCCCC2C(=O)O)n1 (configuration not stated) as the compound, how does the max dye-equivalent concentration read?
Answer: inconclusive: 2.4 nM

Question: With OC[C@@H]1O[C@@H](n2cnc3c(SCc4ccccc4)ncnc32)[C@@H](O)[C@H]1O as the compound, how does the max dye-equivalent concentration read?
Answer: inactive

Question: With COc1ccccc1-n1cnnc1SCC(=O)Nc1cc(C(C)(C)C)nn1-c1ccccc1 as the compound, how does the max dye-equivalent concentration read?
Answer: inconclusive: 1.4 nM

Question: Which max dye-equivalent concentration does the source give for CCCc1nnc(NC(=O)Cn2c(=O)sc3ccccc32)s1 here?
Answer: inconclusive: 1.7 nM

Question: With CN(CCc1ccccn1)S(=O)(=O)c1ccc(F)cc1 as the compound, how does the max dye-equivalent concentration read?
Answer: inconclusive: 1.1 nM

Question: Which max dye-equivalent concentration does the source give for O=C(OCC(=O)N1CCCCCC1)c1n[nH]c(=O)c2ccccc12 here?
Answer: inconclusive: 2.6 nM

Question: Which max dye-equivalent concentration does the source give for CCn1cc(C(=O)NC2CCCC2)c(=O)c2cc(S(=O)(=O)N3CCOCC3)ccc21 here?
Answer: inconclusive: 1.9 nM

Question: For Cc1cc(C)n2nc(SCC(=O)c3cc(C)n(-c4cc(C)on4)c3C)nc2n1, which max dye-equivalent concentration is on record?
Answer: inconclusive: 1.5 nM

Question: With Cc1ccnc(N2CCCC(C(=O)Nc3nnc(C)s3)C2)n1 (configuration not stated) as the compound, how does the max dye-equivalent concentration read?
Answer: inconclusive: 1.6 nM

Question: With CC(C)Cc1n[nH]c(=O)[nH]1 as the compound, how does the max dye-equivalent concentration read?
Answer: inconclusive: 1.1 nM

Question: Which max dye-equivalent concentration does the source give for C#C[C@]1(O)CC[C@@H]2[C@H]3CCC4=CCCC[C@@H]4[C@@H]3CC[C@@]21C here?
Answer: inconclusive: 1.3 nM

Question: With COC1=CC(=O)C[C@@H](C)[C@@]12Oc1c(Cl)c(OC)cc(OC)c1C2=O as the compound, how does the max dye-equivalent concentration read?
Answer: inactive

Question: Which max dye-equivalent concentration does the source give for Cc1cccc2cc(CN(Cc3nnnn3Cc3ccccc3)C3CCCC3)c(=O)[nH]c12 here?
Answer: inactive

Question: For CCc1cc(C(=O)Cc2nc3ccccc3[nH]2)c(O)cc1O, which max dye-equivalent concentration is on record?
Answer: inconclusive: 3 nM

Question: For N[C@H](Cc1ccc(O)c(I)c1)C(=O)O, which max dye-equivalent concentration is on record?
Answer: inconclusive: 1.1 nM

Question: Which max dye-equivalent concentration does the source give for Cc1cccc2cc(CN(Cc3nnnn3Cc3ccco3)C3CCCC3)c3nnnn3c12 here?
Answer: inconclusive: 1.1 nM

Question: Which max dye-equivalent concentration does the source give for CCN(CC)CCCn1c(=S)[nH]c2ccccc2c1=O here?
Answer: inactive

Question: With O=C(CCSCCC(=O)NCCN1CCOCC1)NCCN1CCOCC1 as the compound, how does the max dye-equivalent concentration read?
Answer: inconclusive: 1.1 nM

Question: With COCCn1c(C)cc(C(=O)CSc2ccc(NC(C)=O)cc2)c1C as the compound, how does the max dye-equivalent concentration read?
Answer: inconclusive: 2.2 nM

Question: Which max dye-equivalent concentration does the source give for Cc1ccc(-c2c3c(=O)n(C)c(=O)n(C)c3c3c(C)cc(C)nn23)cc1 here?
Answer: inconclusive: 1.2 nM

Question: With O=c1oc2cc(O)ccc2c2c1CCCC2 as the compound, how does the max dye-equivalent concentration read?
Answer: inconclusive: 1.2 nM

Question: Which max dye-equivalent concentration does the source give for CCOC(=O)c1cnn2c(C(F)(F)F)cc(-c3ccco3)nc12 here?
Answer: inactive

Question: With Cc1nc(N2CCOCC2)c2oc3ccccc3c2n1 as the compound, how does the max dye-equivalent concentration read?
Answer: inconclusive: 1.3 nM

Question: Which max dye-equivalent concentration does the source give for CCOC(=O)CSc1nnc(CNC(=O)c2ccc(OC)cc2OC)n1-c1ccc(OC)cc1 here?
Answer: inconclusive: 2.2 nM

Question: For CCN(CC)CCNC(=O)c1cc(S(C)(=O)=O)ccc1OC, which max dye-equivalent concentration is on record?
Answer: inconclusive: 1.5 nM

Question: Which max dye-equivalent concentration does the source give for CC(C)COC(=O)CCn1[nH]c(=O)c2ccccc2c1=O here?
Answer: inconclusive: 1.1 nM

Question: Which max dye-equivalent concentration does the source give for COc1ccc2nc3c(cc2c1)c(NC(=O)c1cccs1)nn3CC(C)C here?
Answer: inconclusive: 1.3 nM

Question: For COc1ccc(N2CCN(C(=O)C(CCSC)N=C3NS(=O)(=O)c4ccccc43)CC2)cc1 (configuration not stated), which max dye-equivalent concentration is on record?
Answer: inconclusive: 1.7 nM

Question: With Cc1nn2c(-c3cccc(NC(=O)CN4CCOCC4)c3)nnc2c2ccccc12 as the compound, how does the max dye-equivalent concentration read?
Answer: inconclusive: 1.2 nM

Question: With O=C(O)c1ccccc1OCCOc1ccccc1 as the compound, how does the max dye-equivalent concentration read?
Answer: inconclusive: 1.4 nM

Question: With Brc1ccc(-c2nc(-c3ccccc3)no2)o1 as the compound, how does the max dye-equivalent concentration read?
Answer: inconclusive: 1.6 nM

Question: Which max dye-equivalent concentration does the source give for COc1ccc(OCc2nn3c(-c4ccccn4)nnc3s2)cc1 here?
Answer: inconclusive: 1.2 nM

Question: Which max dye-equivalent concentration does the source give for Cc1nonc1NC(=O)Nc1cccnc1 here?
Answer: inconclusive: 1.4 nM

Question: With COc1ccc(C(=O)N2c3ccccc3CC2C)cc1OC (configuration not stated) as the compound, how does the max dye-equivalent concentration read?
Answer: inconclusive: 1.2 nM

Question: Which max dye-equivalent concentration does the source give for COc1cccc(OC)c1-c1nn2c(-c3cc(-c4ccccc4)n[nH]3)nnc2s1 here?
Answer: inconclusive: 1.6 nM

Question: With Cc1ccc(S(=O)(=O)NCCCC(=O)C=[N+]=[N-])cc1 as the compound, how does the max dye-equivalent concentration read?
Answer: inconclusive: 1.3 nM

Question: With C=C[C@H](N)CCC(=O)O as the compound, how does the max dye-equivalent concentration read?
Answer: inconclusive: 1.4 nM

Question: With Cc1oc(-c2ccccc2F)nc1CN1CCC(C(=O)NCCC2=CCCCC2)CC1 as the compound, how does the max dye-equivalent concentration read?
Answer: inconclusive: 1.9 nM

Question: Which max dye-equivalent concentration does the source give for COc1ccc(-c2noc(C3CCCN(C(=O)CCc4ccccc4)C3)n2)cc1 (configuration not stated) here?
Answer: inconclusive: 1.9 nM

Question: Which max dye-equivalent concentration does the source give for CCCCN(CC)C(=O)c1ccc(Cl)c(Cl)c1 here?
Answer: inconclusive: 1.2 nM

Question: With COc1ccccc1C(=O)N1CCN(Cc2ccc3c(c2)OCO3)CC1 as the compound, how does the max dye-equivalent concentration read?
Answer: inconclusive: 1.5 nM

Question: For Cc1cccc2c1nc(-c1ccccc1)n1nnnc21, which max dye-equivalent concentration is on record?
Answer: inconclusive: 1.3 nM

Question: With COCCNC(=O)NC(=O)COC(=O)C12CC3CC(CC(NC(C)=O)(C3)C1)C2 as the compound, how does the max dye-equivalent concentration read?
Answer: inconclusive: 1.7 nM

Question: With COC(=O)c1cccc(NC(=O)CSc2nnc(COc3ccccc3)n2C)c1 as the compound, how does the max dye-equivalent concentration read?
Answer: inconclusive: 1.1 nM

Question: For CC(=O)Nc1ccc(NC(=O)C(C)Oc2ccccc2F)cc1 (configuration not stated), which max dye-equivalent concentration is on record?
Answer: inconclusive: 1.3 nM

Question: For CCOC(=O)C1CCN(Cc2cn[nH]c2-c2ccccc2)CC1, which max dye-equivalent concentration is on record?
Answer: inconclusive: 1.7 nM
